Results published in article PMC2861645.
These are yes or no findings as the source states them, for the method shown. Binding seen in cells or lysates may run through a third protein. A yes stands for co-enrichment or nearness to the bait. Other partners may have been found.

By UniProt entry, the sequences of proteins in these tests, tags left out. Residues count along the entry.
UniProt Q86W56: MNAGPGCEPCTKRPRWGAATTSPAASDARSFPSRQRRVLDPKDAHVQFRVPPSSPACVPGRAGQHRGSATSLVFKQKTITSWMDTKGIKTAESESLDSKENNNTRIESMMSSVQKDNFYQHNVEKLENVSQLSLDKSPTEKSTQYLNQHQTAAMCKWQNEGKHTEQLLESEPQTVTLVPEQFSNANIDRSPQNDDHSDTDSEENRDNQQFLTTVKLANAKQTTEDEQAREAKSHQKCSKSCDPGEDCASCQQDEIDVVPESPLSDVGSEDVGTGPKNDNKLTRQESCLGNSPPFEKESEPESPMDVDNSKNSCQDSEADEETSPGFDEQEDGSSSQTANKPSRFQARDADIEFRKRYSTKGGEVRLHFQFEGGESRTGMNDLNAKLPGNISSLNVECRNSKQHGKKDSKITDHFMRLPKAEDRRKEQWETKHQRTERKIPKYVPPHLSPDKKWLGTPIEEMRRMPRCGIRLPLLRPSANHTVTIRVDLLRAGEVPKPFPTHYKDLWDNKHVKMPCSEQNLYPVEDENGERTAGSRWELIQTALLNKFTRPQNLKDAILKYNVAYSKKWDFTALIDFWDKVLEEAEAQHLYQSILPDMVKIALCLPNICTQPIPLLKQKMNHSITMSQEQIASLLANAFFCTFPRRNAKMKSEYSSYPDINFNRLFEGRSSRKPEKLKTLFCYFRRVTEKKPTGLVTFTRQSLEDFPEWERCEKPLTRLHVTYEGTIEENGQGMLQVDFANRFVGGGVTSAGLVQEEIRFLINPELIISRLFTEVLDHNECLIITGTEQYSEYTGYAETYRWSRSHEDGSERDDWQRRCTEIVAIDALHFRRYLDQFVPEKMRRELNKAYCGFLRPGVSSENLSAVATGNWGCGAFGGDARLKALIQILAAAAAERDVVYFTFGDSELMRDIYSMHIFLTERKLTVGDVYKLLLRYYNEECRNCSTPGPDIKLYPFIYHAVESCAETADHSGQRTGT
UniProt Q9UGN5: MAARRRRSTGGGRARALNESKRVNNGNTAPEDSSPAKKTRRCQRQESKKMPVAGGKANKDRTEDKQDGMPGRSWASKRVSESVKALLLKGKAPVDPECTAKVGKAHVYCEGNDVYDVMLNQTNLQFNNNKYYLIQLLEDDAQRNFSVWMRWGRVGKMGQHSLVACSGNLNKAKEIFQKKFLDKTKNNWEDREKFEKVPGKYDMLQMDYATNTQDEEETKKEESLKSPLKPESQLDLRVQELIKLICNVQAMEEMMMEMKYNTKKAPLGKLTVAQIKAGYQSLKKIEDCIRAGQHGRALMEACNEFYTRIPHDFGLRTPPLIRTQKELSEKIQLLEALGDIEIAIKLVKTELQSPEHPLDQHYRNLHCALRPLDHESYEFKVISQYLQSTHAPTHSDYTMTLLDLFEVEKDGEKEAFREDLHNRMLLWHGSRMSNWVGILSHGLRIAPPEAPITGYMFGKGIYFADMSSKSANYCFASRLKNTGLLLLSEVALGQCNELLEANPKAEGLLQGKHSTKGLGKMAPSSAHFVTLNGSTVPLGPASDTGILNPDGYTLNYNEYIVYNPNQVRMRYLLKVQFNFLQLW
UniProt P09874: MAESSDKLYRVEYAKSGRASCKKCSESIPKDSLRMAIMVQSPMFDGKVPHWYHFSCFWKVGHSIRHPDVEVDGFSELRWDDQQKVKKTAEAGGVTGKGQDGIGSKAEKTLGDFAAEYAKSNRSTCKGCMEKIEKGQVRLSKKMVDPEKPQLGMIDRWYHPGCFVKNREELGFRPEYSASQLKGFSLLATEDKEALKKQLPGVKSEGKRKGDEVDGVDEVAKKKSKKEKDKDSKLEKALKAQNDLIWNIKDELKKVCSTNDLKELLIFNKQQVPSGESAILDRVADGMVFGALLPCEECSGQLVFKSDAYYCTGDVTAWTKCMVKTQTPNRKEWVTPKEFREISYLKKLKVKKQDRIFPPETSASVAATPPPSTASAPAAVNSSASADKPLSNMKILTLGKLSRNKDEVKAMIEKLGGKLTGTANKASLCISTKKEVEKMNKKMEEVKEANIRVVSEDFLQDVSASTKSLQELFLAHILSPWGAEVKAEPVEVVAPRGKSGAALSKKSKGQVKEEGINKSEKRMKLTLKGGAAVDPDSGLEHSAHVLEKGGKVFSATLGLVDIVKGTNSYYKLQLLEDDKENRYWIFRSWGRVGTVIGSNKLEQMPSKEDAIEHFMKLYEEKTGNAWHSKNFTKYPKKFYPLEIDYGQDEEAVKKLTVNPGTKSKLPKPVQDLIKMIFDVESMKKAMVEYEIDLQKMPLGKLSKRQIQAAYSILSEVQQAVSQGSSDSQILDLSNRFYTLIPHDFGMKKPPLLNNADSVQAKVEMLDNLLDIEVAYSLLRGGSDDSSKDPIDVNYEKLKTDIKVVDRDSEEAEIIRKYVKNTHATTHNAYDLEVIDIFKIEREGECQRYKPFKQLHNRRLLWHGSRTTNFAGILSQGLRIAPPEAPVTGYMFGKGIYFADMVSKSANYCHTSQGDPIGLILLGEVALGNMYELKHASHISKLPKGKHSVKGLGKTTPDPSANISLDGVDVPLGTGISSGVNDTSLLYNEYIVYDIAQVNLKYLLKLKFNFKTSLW
UniProt P11021, residues 19-654: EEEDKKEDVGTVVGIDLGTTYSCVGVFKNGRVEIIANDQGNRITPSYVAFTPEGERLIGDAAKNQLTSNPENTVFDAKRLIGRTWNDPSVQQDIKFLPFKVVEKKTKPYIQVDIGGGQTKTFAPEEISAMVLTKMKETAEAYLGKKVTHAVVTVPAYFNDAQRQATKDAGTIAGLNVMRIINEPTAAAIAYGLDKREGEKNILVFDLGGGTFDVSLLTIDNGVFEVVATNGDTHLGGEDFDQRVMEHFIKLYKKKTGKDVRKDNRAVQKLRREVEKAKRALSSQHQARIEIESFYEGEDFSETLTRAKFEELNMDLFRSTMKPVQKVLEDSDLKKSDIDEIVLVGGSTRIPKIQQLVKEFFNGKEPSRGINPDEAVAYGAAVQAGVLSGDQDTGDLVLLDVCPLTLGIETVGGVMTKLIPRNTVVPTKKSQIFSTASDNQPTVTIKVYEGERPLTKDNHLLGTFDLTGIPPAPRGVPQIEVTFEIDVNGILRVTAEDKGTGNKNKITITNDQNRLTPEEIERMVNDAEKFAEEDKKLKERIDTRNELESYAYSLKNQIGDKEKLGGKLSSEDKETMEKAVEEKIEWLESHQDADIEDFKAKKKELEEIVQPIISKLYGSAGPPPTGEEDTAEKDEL
UniProt P11142: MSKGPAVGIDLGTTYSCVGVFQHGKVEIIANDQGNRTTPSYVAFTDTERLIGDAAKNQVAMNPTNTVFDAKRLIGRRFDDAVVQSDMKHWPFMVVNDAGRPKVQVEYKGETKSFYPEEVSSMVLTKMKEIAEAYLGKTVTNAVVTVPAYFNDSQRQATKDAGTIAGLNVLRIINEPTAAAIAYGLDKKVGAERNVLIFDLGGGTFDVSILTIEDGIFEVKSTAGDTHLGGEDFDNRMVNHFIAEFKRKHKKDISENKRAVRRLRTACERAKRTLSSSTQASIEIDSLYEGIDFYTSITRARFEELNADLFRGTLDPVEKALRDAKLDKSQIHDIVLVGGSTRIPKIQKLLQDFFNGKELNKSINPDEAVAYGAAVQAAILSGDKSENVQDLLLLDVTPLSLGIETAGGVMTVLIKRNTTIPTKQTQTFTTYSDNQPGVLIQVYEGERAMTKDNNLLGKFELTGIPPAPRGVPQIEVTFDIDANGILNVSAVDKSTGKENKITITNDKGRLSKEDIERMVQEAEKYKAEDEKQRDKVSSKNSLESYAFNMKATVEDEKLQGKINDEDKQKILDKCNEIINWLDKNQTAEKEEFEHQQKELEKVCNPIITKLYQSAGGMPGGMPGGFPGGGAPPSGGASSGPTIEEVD
UniProt P08238: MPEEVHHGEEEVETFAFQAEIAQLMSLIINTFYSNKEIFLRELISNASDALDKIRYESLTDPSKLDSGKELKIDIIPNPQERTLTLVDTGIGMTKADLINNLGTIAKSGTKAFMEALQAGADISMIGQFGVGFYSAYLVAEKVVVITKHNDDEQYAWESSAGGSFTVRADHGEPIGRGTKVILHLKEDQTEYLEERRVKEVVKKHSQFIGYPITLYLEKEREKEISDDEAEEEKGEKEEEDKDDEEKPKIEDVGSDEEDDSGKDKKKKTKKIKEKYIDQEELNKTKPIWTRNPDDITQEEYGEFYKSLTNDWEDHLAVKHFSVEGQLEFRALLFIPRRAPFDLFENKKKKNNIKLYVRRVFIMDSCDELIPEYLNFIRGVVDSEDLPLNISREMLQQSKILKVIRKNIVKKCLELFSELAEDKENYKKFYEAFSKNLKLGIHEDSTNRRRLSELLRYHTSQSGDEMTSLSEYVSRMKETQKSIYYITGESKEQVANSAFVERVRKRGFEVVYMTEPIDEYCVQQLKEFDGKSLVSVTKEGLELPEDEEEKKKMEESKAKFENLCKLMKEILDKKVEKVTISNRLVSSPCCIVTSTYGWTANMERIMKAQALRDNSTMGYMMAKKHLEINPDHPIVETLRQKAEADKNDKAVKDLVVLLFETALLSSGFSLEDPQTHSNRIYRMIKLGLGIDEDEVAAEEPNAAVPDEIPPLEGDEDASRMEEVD
UniProt P17844: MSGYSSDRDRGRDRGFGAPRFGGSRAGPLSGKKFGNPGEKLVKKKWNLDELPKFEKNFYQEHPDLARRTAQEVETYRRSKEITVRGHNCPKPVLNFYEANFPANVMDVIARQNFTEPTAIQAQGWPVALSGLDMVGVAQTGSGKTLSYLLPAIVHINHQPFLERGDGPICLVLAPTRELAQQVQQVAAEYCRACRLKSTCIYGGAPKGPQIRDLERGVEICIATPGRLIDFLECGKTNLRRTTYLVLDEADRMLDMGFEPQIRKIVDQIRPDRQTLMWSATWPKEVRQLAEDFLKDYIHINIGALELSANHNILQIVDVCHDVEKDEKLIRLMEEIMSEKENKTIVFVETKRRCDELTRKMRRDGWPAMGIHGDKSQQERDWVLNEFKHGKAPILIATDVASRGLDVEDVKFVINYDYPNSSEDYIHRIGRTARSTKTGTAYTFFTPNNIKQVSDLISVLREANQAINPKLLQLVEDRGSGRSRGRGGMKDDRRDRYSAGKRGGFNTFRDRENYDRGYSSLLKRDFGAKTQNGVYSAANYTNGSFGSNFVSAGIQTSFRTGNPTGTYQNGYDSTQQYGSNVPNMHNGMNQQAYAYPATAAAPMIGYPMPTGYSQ
UniProt P51114: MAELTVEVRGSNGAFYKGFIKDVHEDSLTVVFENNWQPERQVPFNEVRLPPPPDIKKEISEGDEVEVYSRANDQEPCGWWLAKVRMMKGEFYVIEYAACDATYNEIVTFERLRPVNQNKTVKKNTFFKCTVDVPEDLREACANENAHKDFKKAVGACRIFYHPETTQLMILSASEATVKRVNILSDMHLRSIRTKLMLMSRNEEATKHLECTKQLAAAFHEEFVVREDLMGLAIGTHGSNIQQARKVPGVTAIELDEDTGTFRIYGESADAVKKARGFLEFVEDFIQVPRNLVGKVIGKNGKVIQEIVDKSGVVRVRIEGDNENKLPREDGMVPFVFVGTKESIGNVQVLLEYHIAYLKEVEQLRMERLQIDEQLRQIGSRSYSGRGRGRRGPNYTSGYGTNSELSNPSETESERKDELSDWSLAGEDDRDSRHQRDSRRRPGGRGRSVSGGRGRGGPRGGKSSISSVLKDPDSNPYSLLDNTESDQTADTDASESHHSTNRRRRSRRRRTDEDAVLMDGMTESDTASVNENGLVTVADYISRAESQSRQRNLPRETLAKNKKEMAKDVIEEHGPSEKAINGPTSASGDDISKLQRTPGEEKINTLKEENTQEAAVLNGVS
UniProt P11940: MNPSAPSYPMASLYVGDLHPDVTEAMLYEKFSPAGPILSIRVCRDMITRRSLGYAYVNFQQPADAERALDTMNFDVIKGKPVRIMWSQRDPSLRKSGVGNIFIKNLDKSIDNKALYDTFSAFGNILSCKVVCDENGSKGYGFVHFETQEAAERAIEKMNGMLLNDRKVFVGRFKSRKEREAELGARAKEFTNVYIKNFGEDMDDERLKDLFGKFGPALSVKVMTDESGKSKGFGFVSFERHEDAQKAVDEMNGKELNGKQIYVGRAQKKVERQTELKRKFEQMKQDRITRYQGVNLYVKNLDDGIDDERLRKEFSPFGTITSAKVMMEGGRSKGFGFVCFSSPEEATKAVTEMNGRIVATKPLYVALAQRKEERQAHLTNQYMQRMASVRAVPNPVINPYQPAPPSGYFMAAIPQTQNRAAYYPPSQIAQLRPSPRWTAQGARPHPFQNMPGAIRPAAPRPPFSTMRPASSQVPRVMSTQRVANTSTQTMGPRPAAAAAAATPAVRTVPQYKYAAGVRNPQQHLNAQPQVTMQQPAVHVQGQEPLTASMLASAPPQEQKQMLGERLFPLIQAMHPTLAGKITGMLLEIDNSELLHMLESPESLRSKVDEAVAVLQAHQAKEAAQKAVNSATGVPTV

Tests used:
FLAG-PARG = FLAG-PARG (UniProt Q86W56); experiment: affinity purification with mass spectrometry; transiently overexpressed FLAG-PARP-2 or FLAG-PARG immunoprecipitated from human cell lysate (phosphate or Tris lysis buffer pH 8.0, 150 mM NaCl, 1% NP-40) with anti-FLAG M2 on protein G magnetic beads, 2 h at 4°C; control normal mouse IgG; SDS-PAGE, in-gel trypsin digestion, LC-MS/MS; each hit in at least two pull-downs
FLAG-PARP-2 = FLAG-PARP-2 (UniProt Q9UGN5); experiment: as above
[1] = biological target: Poly(ADP-ribose) polymerase 1 (PARP-1) (human (endogenous in SK-N-SH or HeLa)) (UniProt P09874); experiment: affinity purification with mass spectrometry; PARP-1 immunoprecipitated from human cell lysate (SK-N-SH or HeLa; phosphate or Tris lysis buffer pH 8.0, 150 mM NaCl, 1% NP-40) with monoclonal F1-23 on protein G magnetic beads, 2 h at 4°C; control normal mouse IgG; SDS-PAGE, in-gel trypsin digestion, LC-MS/MS; each hit in at least two pull-downs

binding (FLAG-PARG) | binding (FLAG-PARP-2) | binding [1] | Molecule
binds | binds | binds | GRP78 (from UniProt P11021 19-654)
binds | binds | binds | HSC70 (from UniProt P11142 1-646)
binds | binds | – | nuclease-sensitive element-binding protein 1 (from UniProt P67809 1-324)
binds | binds | binds | HSP90AB1 (from UniProt P08238 1-724)
binds | binds | – | ATP-dependent RNA helicase DDX5 (from UniProt P17844 1-614)
binds | binds | binds | Fragile-X mental retardation syndrome-related protein 1 (from UniProt P51114 1-621)
binds | binds | – | Polyadenylate-binding protein 1 (from UniProt P11940 1-636)
binds | binds | binds | hnRNP M (protein, UniProt P52272 1-730) MAAGVEAAAEVAATEIKMEEESGAPGVPSGNGAPGPKGEGERPAQNEKRKEKNIKRGGNRFEPYANPTKRYRAFITNIPFDVKWQSLKDLVKEKVGEVTYVELLMDAEGKSRGCAVVEFKMEESMKKAAEVLNKHSLSGRPLKVKEDPDGEHARRAMQKVMATTGGMGMGPGGPGMITIPPSILNNPNIPNEIIHALQAGRLGSTVFVANLDYKVGWKKLKEVFSMAGVVVRADILEDKDGKSRGIGTVTFEQSIEAVQAISMFNGQLLFDRPMHVKMDERALPKGDFFPPERPQQLPHGLGGIGMGLGPGGQPIDANHLNKGIGMGNIGPAGMGMEGIGFGINKMGGMEGPFGGGMENMGRFGSGMNMGRINEILSNALKRGEIIAKQGGGGGGGSVPGIERMGPGIDRLGGAGMERMGAGLGHGMDRVGSEIERMGLVMDRMGSVERMGSGIERMGPLGLDHMASSIERMGQTMERIGSGVERMGAGMGFGLERMAAPIDRVGQTIERMGSGVERMGPAIERMGLSMERMVPAGMGAGLERMGPVMDRMATGLERMGANNLERMGLERMGANSLERMGLERMGANSLERMGPAMGPALGAGIERMGLAMGGGGGASFDRAIEMERGNFGGSFAGSFGGAGGHAPGVARKACQIFVRNLPFDFTWKMLKDKFNECGHVLYADIKMENGKSKGCGVVKFESPEVAERACRMMNGMKLSGREIDVRIDRNA
